{
  "source": "the supplement of paper PMC8728848",
  "test_in_all_cases": "glycan array binding signal (z-score within array); higher = stronger binding",
  "settings_in_all_cases": "glycan notation: IUPAC condensed, linker removed",
  "key": {"[1]": {"target": "Fuc(a1-2)[GalNAc(a1-3)]Gal(b1-3)GlcNAc(b1-6)GalNAc", "method_in_brief": "(§1)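 Columns mapping to the same glycan were averaged after glycan names were converted to IUPAC-condensed notation. The data come from 3228 arrays in the Consortium for Functional Glycomics database, limited to those with an available protein sequence. Binding is reported as a within-array Z-score averaged across arrays of one protein sequence and across linkers.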"}, "[2]": {"target": "Fuc(a1-2)[GalNAc(a1-3)]Gal(b1-4)Glc", "method_in_brief": "as §1"}, "[3]": {"target": "Fuc(a1-2)[GalNAc(a1-3)]Gal(b1-4)GlcNAc", "method_in_brief": "as §1"}, "[4]": {"target": "Fuc(a1-2)[GalNAc(a1-3)]Gal(b1-4)GlcNAc(b1-2)Man", "method_in_brief": "as §1"}, "[5]": {"target": "Fuc(a1-2)[GalNAc(a1-3)]Gal(b1-4)GlcNAc(b1-2)Man(a1-3)[Fuc(a1-2)[GalNAc(a1-3)]Gal(b1-4)GlcNAc(b1-2)Man(a1-6)]Man(b1-4)GlcNAc(b1-4)GlcNAc", "method_in_brief": "as §1"}, "[6]": {"target": "Fuc(a1-2)[GalNAc(a1-3)]Gal(b1-4)GlcNAc(b1-2)Man(a1-3)[Fuc(a1-2)[GalNAc(a1-3)]Gal(b1-4)GlcNAc(b1-2)Man(a1-6)]Man(b1-4)GlcNAc(b1-4)[Fuc(a1-6)]GlcNAc", "method_in_brief": "as §1"}, "[7]": {"target": "Fuc(a1-2)[GalNAc(a1-3)]Gal(b1-4)GlcNAc(b1-3)Gal(b1-4)GlcNAc", "method_in_brief": "as §1"}, "[8]": {"target": "Fuc(a1-2)[GalNAc(a1-3)]Gal(b1-4)GlcNAc(b1-3)Gal(b1-4)GlcNAc(b1-3)Gal(b1-4)GlcNAc", "method_in_brief": "as §1"}, "[9]": {"target": "Fuc(a1-2)[GalNAc(a1-3)]Gal(b1-4)GlcNAc(b1-3)GalNAc", "method_in_brief": "as §1"}, "[10]": {"target": "Fuc(a1-2)[GalNAc(a1-3)]Gal(b1-4)GlcNAc(b1-3)[Fuc(a1-2)[GalNAc(a1-3)]Gal(b1-4)GlcNAc(b1-6)]GalNAc", "method_in_brief": "as §1"}, "[11]": {"target": "Fuc(a1-2)[GalNAc(a1-3)]Gal(b1-4)GlcNAc(b1-6)GalNAc", "method_in_brief": "as §1"}, "[12]": {"target": "Fuc(a1-2)[GalNAc(a1-3)]Gal(b1-4)[Fuc(a1-3)]GlcNAc", "method_in_brief": "as §1"}, "[13]": {"target": "Fuc(a1-2)[GalNAc(a1-3)]Gal(b1-4)[Fuc(a1-3)]GlcNAc(b1-3)GalNAc", "method_in_brief": "as §1"}, "[14]": {"target": "Fuc(a1-2)[GalNAc(a1-4)]Gal(b1-4)GlcNAc", "method_in_brief": "as §1"}, "[15]": {"target": "Fuc(a1-2)[GalNAc(b1-3)]Gal", "method_in_brief": "as §1"}, "[16]": {"target": "Fuc(a1-3)GlcNAc", "method_in_brief": "as §1"}, "[17]": {"target": "Fuc(a1-3)[Gal(b1-4)]Glc6S", "method_in_brief": "as §1"}, "[18]": {"target": "Fuc(a1-3)[Gal(b1-4)]GlcNAc", "method_in_brief": "as §1"}, "[19]": {"target": "Fuc(a1-3)[Gal(b1-4)]GlcNAc(b1-2)Man", "method_in_brief": "as §1"}, "[20]": {"target": "Fuc(a1-3)[Gal(b1-4)]GlcNAc(b1-2)Man(a1-3)[Fuc(a1-3)[Gal(b1-4)]GlcNAc(b1-2)Man(a1-6)]Man(b1-4)GlcNAc(b1-4)GlcNAc", "method_in_brief": "as §1"}, "[21]": {"target": "Fuc(a1-3)[Gal(b1-4)]GlcNAc(b1-2)Man(a1-3)[Fuc(a1-3)[Gal(b1-4)]GlcNAc(b1-2)Man(a1-6)]Man(b1-4)GlcNAc(b1-4)[Fuc(a1-6)]GlcNAc", "method_in_brief": "as §1"}, "[22]": {"target": "Fuc(a1-3)[Gal(b1-4)]GlcNAc(b1-3)Gal(b1-3)[Fuc(a1-4)]GlcNAc", "method_in_brief": "as §1"}, "[23]": {"target": "Fuc(a1-3)[Gal(b1-4)]GlcNAc(b1-3)Gal(b1-4)[Fuc(a1-3)]GlcNAc", "method_in_brief": "as §1"}, "[24]": {"target": "Fuc(a1-3)[Gal(b1-4)]GlcNAc(b1-3)Gal(b1-4)[Fuc(a1-3)]GlcNAc(b1-3)Gal(b1-4)[Fuc(a1-3)]GlcNAc", "method_in_brief": "as §1"}, "[25]": {"target": "Fuc(a1-3)[Gal(b1-4)]GlcNAc(b1-3)GalNAc", "method_in_brief": "as §1"}, "[26]": {"target": "Fuc(a1-3)[Gal(b1-4)]GlcNAc(b1-6)GalNAc", "method_in_brief": "as §1"}, "[27]": {"target": "Fuc(a1-3)[Gal(b1-4)]GlcNAc(b1-6)[Gal(b1-3)GlcNAc(b1-3)]Gal(b1-4)Glc", "method_in_brief": "as §1"}, "[28]": {"target": "Fuc(a1-3)[Gal(b1-4)]GlcNAc6S", "method_in_brief": "as §1"}, "[29]": {"target": "Fuc(a1-3)[Gal3S(b1-4)]Glc", "method_in_brief": "as §1"}, "[30]": {"target": "Fuc(a1-3)[Gal3S(b1-4)]GlcNAc", "method_in_brief": "as §1"}, "[31]": {"target": "Fuc(a1-3)[Gal3S(b1-4)]GlcNAc6S", "method_in_brief": "as §1"}, "[32]": {"target": "Fuc(a1-3)[GalNAc(b1-4)]GlcNAc", "method_in_brief": "as §1"}, "[33]": {"target": "Fuc(a1-3)[GalNAc(b1-4)]GlcNAc6S", "method_in_brief": "as §1"}, "[34]": {"target": "Fuc(a1-4)GlcNAc", "method_in_brief": "as §1"}, "[35]": {"target": "Fuc(b1-3)GlcNAc", "method_in_brief": "as §1"}, "[36]": {"target": "Gal(a1-2)Gal", "method_in_brief": "as §1"}, "[37]": {"target": "Gal(a1-3)Gal", "method_in_brief": "as §1"}},
  "note": "This is one part of the list.",
  "data": [
    {"binder": "PX14404-bvu-534-26-534 (Bacteroides vulgatus) (protein) EDPRGKLTPENFFSTQDELNMSIYALYQKVNLSQVYTNMQLPQWQGDDITTNPGSNKQPAAEMDKFAAANNNKGVKDAWNMHYAIVKAANLIIQGASKTPTTQDEINIALGQAKFWRAYAYFTLVRLWGPLPMNLDNVNDDYTKPLSPVEEVYGHIVQDLTEAEAVLPTGYSGSPRFLNGVNVYVTRQAAKSTLAAVYMAMAGWPMNKTEYYAKAAEKAKEVIEGVNRGEYEYKLDKDYKDVYAMSNNYNNETVLGINYSPFVDWAQDSELTSCNQFESLGGWGDAWGEIRFWKEFPDGPRKDATYDPKIRLKDGTLVDWWELKEDGTPVVPEHHPMFSIFSVNWDPASKVNTSAPYDYTKPASQNMCNDHRHRIIRYSEVLLWYAEAKARTGQTDELAFKCLNDVRERAGLEPLTGLSADDLAEAAYKEHGWEVAGYWVALVTRRADQFRMNRLKDTFKERAENTAVEVADGILVKESVEYTNRTWSDNLMYLPYPDMDSQKNPNLVR", "values": [
      {"measurement": "glycan array binding signal (z-score)", "setting": "[1]", "value": -0.199},
      {"measurement": "glycan array binding signal (z-score)", "setting": "[2]", "value": -0.975},
      {"measurement": "glycan array binding signal (z-score)", "setting": "[3]", "value": -1.17},
      {"measurement": "glycan array binding signal (z-score)", "setting": "[4]", "value": -1.15},
      {"measurement": "glycan array binding signal (z-score)", "setting": "[5]", "value": 0.042},
      {"measurement": "glycan array binding signal (z-score)", "setting": "[6]", "value": 1.18},
      {"measurement": "glycan array binding signal (z-score)", "setting": "[7]", "value": -1.36},
      {"measurement": "glycan array binding signal (z-score)", "setting": "[8]", "value": -0.561},
      {"measurement": "glycan array binding signal (z-score)", "setting": "[9]", "value": 0.719},
      {"measurement": "glycan array binding signal (z-score)", "setting": "[10]", "value": 0.772},
      {"measurement": "glycan array binding signal (z-score)", "setting": "[11]", "value": -0.997},
      {"measurement": "glycan array binding signal (z-score)", "setting": "[12]", "value": -0.077},
      {"measurement": "glycan array binding signal (z-score)", "setting": "[13]", "value": 1.51},
      {"measurement": "glycan array binding signal (z-score)", "setting": "[14]", "value": -0.598},
      {"measurement": "glycan array binding signal (z-score)", "setting": "[15]", "value": 0.477},
      {"measurement": "glycan array binding signal (z-score)", "setting": "[16]", "value": -0.234},
      {"measurement": "glycan array binding signal (z-score)", "setting": "[17]", "value": 0.853},
      {"measurement": "glycan array binding signal (z-score)", "setting": "[18]", "value": -0.417},
      {"measurement": "glycan array binding signal (z-score)", "setting": "[19]", "value": 0.308},
      {"measurement": "glycan array binding signal (z-score)", "setting": "[20]", "value": 0.812},
      {"measurement": "glycan array binding signal (z-score)", "setting": "[21]", "value": 0.082},
      {"measurement": "glycan array binding signal (z-score)", "setting": "[22]", "value": -0.723},
      {"measurement": "glycan array binding signal (z-score)", "setting": "[23]", "value": -0.605},
      {"measurement": "glycan array binding signal (z-score)", "setting": "[24]", "value": 0.149},
      {"measurement": "glycan array binding signal (z-score)", "setting": "[25]", "value": 0.244},
      {"measurement": "glycan array binding signal (z-score)", "setting": "[26]", "value": 1.74},
      {"measurement": "glycan array binding signal (z-score)", "setting": "[27]", "value": -0.693},
      {"measurement": "glycan array binding signal (z-score)", "setting": "[28]", "value": -0.499},
      {"measurement": "glycan array binding signal (z-score)", "setting": "[29]", "value": -0.877},
      {"measurement": "glycan array binding signal (z-score)", "setting": "[30]", "value": -0.373},
      {"measurement": "glycan array binding signal (z-score)", "setting": "[31]", "value": -1.18},
      {"measurement": "glycan array binding signal (z-score)", "setting": "[32]", "value": 1.15},
      {"measurement": "glycan array binding signal (z-score)", "setting": "[33]", "value": 1.21},
      {"measurement": "glycan array binding signal (z-score)", "setting": "[34]", "value": -0.669},
      {"measurement": "glycan array binding signal (z-score)", "setting": "[35]", "value": -0.374},
      {"measurement": "glycan array binding signal (z-score)", "setting": "[36]", "value": -0.738},
      {"measurement": "glycan array binding signal (z-score)", "setting": "[37]", "value": -0.042}
    ]}
  ]
}
